Taken from: PubChem BioAssay AID1224826 (NIAID, 2016)
Screen: 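Genes that change LPS-induced Tnf promoter activity in mouse macrophages when knocked down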 (primary screen). System: RAW264.7 G9 macrophages from mouse bearing reporters for p65 (GFP) and the Tnf promoter (mCherry). Reagents: siRNA pool against mouse genes, 100 nM. Time to read-out: 16 h of LPS stimulation, after 2 days of siRNA transfection. Treatment: bacterial lipopolysaccharide (Salmonella minnesota R595), 10 ng/ml. Detection: 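Imaged Tnf reporter mCherry in nuclei, minus background, normalised per plate to the median and expressed as robust z-scores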. Direction: Tnf reporter robust z-score: higher = stronger Tnf promoter reporter signal after LPS; Tnf reporter intensity: higher = stronger Tnf promoter reporter signal. Hit rule: 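Called active when robust z-score is at most -1.3, matching the median of the Tlr4 knock-down control, or over 3; control wells and wells with under 50 cells never active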. Meaning of the calls: active = Tnf reporter clearly lowered or raised; inactive = no clear change in Tnf reporter.
The deposit covers about 17,000 reagents; below is an unselected part. About 1,110 of all reagents (6.6%) count as active. 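Active means lowered or raised reporter signal; replicate intensities are raw and not normalised per plate.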 Unmarked entries are inactive. Reagent sequences are not shown.

no.	gene	PubChem SID	Tnf reporter robust z-score	fewer than 50 cells in well	Tnf reporter intensity, replicate 1	Tnf reporter intensity, replicate 2
1	1810065E05Rik	SID315473920		fewer than 50 cells per well; well left out of calls	175	56.2
2	Col8a1	SID315466066	-0.98	enough cells in well	169	136
3	Erh	SID315466556	0.86	enough cells in well	289	304
4	Trpm6	SID315478455	0.28	enough cells in well	192	114
5	Or6b1	SID315480669		fewer than 50 cells per well; well left out of calls	31.7	77.9
6	Slc3a1	SID315469306	-0.85	enough cells in well	174	90.6
7	Gpx2	SID315467007	1.64	enough cells in well	349	410
8	Ero1b	SID315473054		fewer than 50 cells per well; well left out of calls	84.6	39.7
9	Hba-a1	SID315467148	1.04	enough cells in well	288	284
10	Cfp	SID315468475	0.83	enough cells in well	287	250
11	Ebf2	SID315466422	1.53	enough cells in well	296	166
12	Vsig8	SID315479536		fewer than 50 cells per well; well left out of calls	112	35.7
13	Zwilch	SID315473362		fewer than 50 cells per well; well left out of calls	48.6	75.4
14	Prpf40a	SID315471391	0.01	enough cells in well	170	189
15	Eif2s1	SID315466469	-0.33	enough cells in well	146	116
16	Erdr1x	SID315477262	1.26	enough cells in well	357	192
17	Zscan20	SID315480865	0.54	enough cells in well	162	131
18	Or5ap2	SID315480239	1.09	enough cells in well	257	205
19	Mphosph6	SID315473560	-0.95	enough cells in well	182	136
20	Ulk1	SID315469932	-0.3	enough cells in well	159	111
21	Zfp317	SID315479779	1.33	enough cells in well	227	127
22	Mrps35	SID315478997	-0.9	enough cells in well	145	81.2
23	Cd248	SID315474055	-0.16	enough cells in well	165	155
24	Sp110	SID315476774	-0.69	enough cells in well	121	92
25	Bacc1	SID315476446	1.75	enough cells in well	453	113
26	Rer1	SID315473244		fewer than 50 cells per well; well left out of calls	133	43.1
27	Opn4	SID315470732	0.66	enough cells in well	346	104
28	Ropn1l	SID315479920		fewer than 50 cells per well; well left out of calls	97.7	76.4
29	Slc9a7	SID315479306	0.75	enough cells in well	200	207
30	H1f9	SID315471219	-0.46	enough cells in well	265	100
31	Top1	SID315469791	-0.9	enough cells in well	195	73.1
32	Or5p73	SID315479997		fewer than 50 cells per well; well left out of calls	62	75.9
33	Pheta2	SID315481677		fewer than 50 cells per well; well left out of calls	146	97.3
34	Fam110a	SID315474794	-0.03	enough cells in well	122	148
35	Zfp446	SID315480893	0.62	enough cells in well	187	207
36	Or52m1	SID315480013		fewer than 50 cells per well; well left out of calls	111	111
37	Mfsd6	SID315476140	-0.44	enough cells in well	144	170
38	Oog1	SID315477434	1.23	enough cells in well	194	202
39	Ivl	SID315467541	0.2	enough cells in well	173	162
40	Yipf4	SID315473270		fewer than 50 cells per well; well left out of calls	101	67.6

Ordered by “Tnf reporter intensity, replicate 1” (high to low): some entries from above.
gene	PubChem SID	Tnf reporter robust z-score	fewer than 50 cells in well	Tnf reporter intensity, replicate 1	Tnf reporter intensity, replicate 2
Ebf2	SID315466422	1.53	enough cells in well	296	166
Hba-a1	SID315467148	1.04	enough cells in well	288	284
Cfp	SID315468475	0.83	enough cells in well	287	250
Vsig8	SID315479536		fewer than 50 cells per well; well left out of calls	112	35.7
Ero1b	SID315473054		fewer than 50 cells per well; well left out of calls	84.6	39.7
Zwilch	SID315473362		fewer than 50 cells per well; well left out of calls	48.6	75.4
